According to PubChem BioAssay AID2685 (National Center for Advancing Translational Sciences (NCATS), 2010):
Some of the results follow. Shown are side measurements of this screen, not its main read-out; they come without a call. The list favours compounds with an active or inconclusive main result. Potencies come from curve fits of mixed quality, noted in brackets. Where a SMILES comes first, the peptide text is derived from it. [ ]: non-standard residue; d: D form. ξ: configuration not given here. ξM = CSCCC(N)C(=O)O

Assay: qHTS Assay for Lipid Storage Modulators in Drosophila S3 Cells;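 as to cell number change: cells counted by Cell Tracker Red CMTPX staining in the red channel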
Settings: BODIPY lipid droplet fluorescence, 18-24 h; for cell number change: measured here: cell count max response, cells fed with added oleic acid
How it was run: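 Laser-scanning cytometry quantifies lipid droplet accumulation (500–530 nm total intensity; droplet/cell object ratio) in oleic acid-fed (400 uM added) Drosophila S3 cells treated with a concentration series. 20 uM Triacsin C defined 100% inhibition.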

[1] = measured here: lipid fluorescence (Fed channel) AC50, cells fed with added oleic acid
[2] = measured here: cell number channel AC50, cells fed with added oleic acid

Compound | cell number change | AC50 [1] | AC50 [2]
Cc1c(C(=O)NCCc2ccccc2)oc2ccccc12 | 4.5% |  | 
C=CCNc1nnc(Cl)c2ccccc12 | 12.2% | 23.1 µM [rising, single point] | 
NC(=O)Cn1nc([N+](=O)[O-])nc1Oc1ccccc1F | 2.54% |  | 
CCOc1ccc(C(=O)CCC(=O)NC(C)C(=O)OC)cc1 (stereo unspecified) | 25.8% |  | 
O=C(C1CCCN(S(=O)(=O)c2cc(Cl)ccc2Cl)C1)N1CCCCCC1 (stereo unspecified) | -13.6% | 8.2 µM [falling, partial curve, poor fit] | 
CS(=O)(=O)c1ccc2nc(NC(=O)C3CCCCC3)sc2c1 | 2.37% | 3.26 µM [rising, partial curve, poor fit] | 
CCOc1cccc(N(C(=O)c2ccco2)C(C(=O)NC2CCCC2)c2cccnc2)c1 (stereo unspecified) | 9.46% |  | 
O=C(COC(=O)/C=C/c1ccccc1Cl)NCc1ccco1 | -2.71% | 32.6 µM [rising, single point] | 
CN(CCc1ccccn1)C(=O)CC1C(=O)NCCN1Cc1cccc(F)c1 (stereo unspecified) | -13.5% | 0.146 µM [falling, full curve, poor fit] | 
COCC(=O)Nc1c(C(=O)Nc2ccc3c(c2)OCO3)oc2ccccc12 | 9.85% | 0.116 µM [falling, full curve, poor fit] | 
CC(=O)C1=C(O)C(=O)N(c2ccc(O)cc2)C1c1ccc(F)cc1 (stereo unspecified) | 11.6% |  | 
CCc1cc(-c2[nH]ncc2-c2ccc([N+](=O)[O-])cc2)c(O)cc1OC | -52.9% |  | 29.1 µM [falling, single point]
Cc1sc(NC(=O)c2ccc3ncsc3c2)c(C(N)=O)c1C | 35.1% |  | 1.16 µM [rising, full curve, poor fit]
COc1cccc(NC(=O)C(OC(=O)c2ccc([N+](=O)[O-])o2)c2ccccc2)c1 (stereo unspecified) | -1% | 1.84 µM [rising, partial curve] | 
CCn1c(C)nc([N+](=O)[O-])c1Sc1ccc(F)cc1 | -10.4% | 29.1 µM [falling, single point] | 
NS(=O)(=O)c1ccc(CCNCc2cc(Br)ccc2OCc2ccccc2F)cc1 | -34.3% | 25.9 µM [falling, single point] | 18.4 µM [falling, single point]
O=S(=O)(c1ccc2oc3ccc(S(=O)(=O)N4CCCCC4)cc3c2c1)N1CCCCC1 | 14% | 6.51 µM [rising, full curve, poor fit] | 
Cc1nnc(NC(=O)c2c(F)c(F)c(F)c(F)c2F)s1 | -10% | 18.4 µM [falling, single point] | 
COc1ccc([N+](=O)[O-])cc1NC1CCN(C(=O)c2cccs2)CC1 | 5.95% |  | 
CCCn1cnc2c(oc3ccccc32)c1=O | 10.6% |  | 
Cc1ccc(/C=N/n2c(C)nc3ccccc3c2=O)o1 | -96.9% |  | 
COc1ccc(C2CC(=O)c3cc(OC)c(OC)cc32)cc1OC (stereo unspecified) |  | 0.731 µM [rising, single point] | 
C=C(C(=O)Oc1c(C(C)(C)C)cccc1C(C)(C)C)c1ccccc1 | -7.24% | 5.17 µM [falling, partial curve, poor fit] | 0.259 µM [falling, full curve]

Compound | cell number change | AC50 [1] | AC50 [2]
CCOc1ccc(NC(=O)CSc2nnc(C)n2CC2CCCO2)cc1 (stereo unspecified) |  | 1.46 µM [rising, partial curve] | 
CC(=O)Nc1cccc(Oc2ccc(-c3noc(C)n3)cc2)c1 | -4.61% | 2.59 µM [rising, full curve] | 
COc1ccc(-n2c(C)cc(C3=NNC(=NC4CC4)SC3)c2C)cc1 |  | 3.66 µM [rising, single point] | 5.17 µM [rising, single point]
Cc1cccc(N2CCN(C(=O)C3CCN(c4ncnc5c4nc4n5CCCCC4)CC3)CC2C)c1 (stereo unspecified) | -29% |  | 
COc1cc(C(=O)N2CCN(S(=O)(=O)c3ccc(F)cc3)CC2)cc(OC)c1OC | 14.1% | 16.4 µM [rising, single point] | 
CC(=O)Nc1cc(-c2nn(C)c(=O)c3ccccc23)ccc1N1CCOCC1 | 77.3% |  | 18.4 µM [rising, partial curve, poor fit]
COc1ccc(C(=O)N(C)Cc2ccccn2)cc1OC1CCN(C(C)C)CC1 | 4.05% |  | 
CCOc1nc(N2CCCCC2)nc(-n2cc(-c3ccccc3)nn2)n1 | -1.19% |  | 
CC1CCc2c(sc(NC(=O)c3c([N+](=O)[O-])cnn3C)c2C(N)=O)C1 (stereo unspecified) | 5.67% | 29.1 µM [rising, single point] | 
CC(C)CN(C(=O)COC(=O)c1nc(Cl)ccc1Cl)C1CCS(=O)(=O)C1 (stereo unspecified) | 7.17% |  | 
CCOC(=O)N1CCN(C(=O)c2ccc(Cn3c(=S)[nH]c4ccc(Br)cc4c3=O)cc2)CC1 | -4.48% | 1.16 µM [falling, full curve] | 
COc1ccc(NC(=O)CCNC(=O)C2CCN(S(=O)(=O)c3ccc(F)cc3)CC2)cc1OC | 45.6% | 20.6 µM [rising, partial curve] | 9.2 µM [rising, partial curve]
CCCCCC(=O)OCCc1c(C)nc2nc[nH]n2c1=O | 4.66% | 6.51 µM [falling, single point] | 6.51 µM [falling, partial curve, poor fit]
CCOC(=O)c1c(N=CN(C)C)c2cc([N+](=O)[O-])cnc2n1C | -3.86% | 0.103 µM [rising, full curve, poor fit] | 
COC(=O)CNC(=O)C(CCSC)NC(C)=O (stereo unspecified) (Ac-[ξM]-Gly-OMe) | -15.4% | 0.92 µM [falling, full curve, poor fit] | 
C[n+]1ccccc1/C=C/c1ccc(F)c(F)c1 | -4.74% |  | 
COc1ccc2c(c1)[nH]c1c(=O)n(CCC3=CCCCC3)cnc12 | 28.7% | 0.291 µM [rising, full curve, poor fit] | 0.103 µM [rising, full curve, poor fit]
NC(=O)C1(N2CCCCC2)CCN(c2nc(-c3ccc(Br)cc3)cs2)CC1 | -15.5% |  | 
CCN(CC)CCNCc1cc(Br)ccc1OCC(=O)NCc1ccccc1 | -22.8% | 4.11 µM [falling, partial curve] | 6.51 µM [falling, single point]
COCCCn1c(-c2ccccc2)nc2ccccc2c1=O | 17.2% | 0.00651 µM [falling, full curve, poor fit] | 
CCn1c(CSCc2c(Cl)cccc2Cl)n[nH]c1=S |  | 0.259 µM [rising, full curve] | 0.164 µM [rising, full curve]
Oc1ccc[n+](/C=C\c2ccccc2)c1 | -8.84% | 0.00461 µM [falling, full curve, poor fit] | 0.731 µM [falling, single point]
Cn1nnc(-c2ccc(OCc3ccccc3F)cc2)n1 |  | 0.146 µM [falling, full curve, poor fit] | 

Compound | cell number change | AC50 [1] | AC50 [2]
C=CCN=C(NC#N)SCC(=O)NC(C)(C)C | 13.4% | 8.2 µM [rising, partial curve] | 
CCc1ccc(C2CC(=O)N3CN(c4ccccc4)CSC3=C2C#N)cc1 (stereo unspecified) | 12.3% |  | 
c1cc(N2CCCC2)ccc1C(c1nnnn1C1CCCCC1)N1CCOCC1 (stereo unspecified) | -9.45% |  | 
COc1ccc(CCNC(=O)C2CC(=O)N(c3ccc(C(C)(C)C)cc3)C2)cc1OC (stereo unspecified) | 15.6% | 6.51 µM [falling, single point] | 
CCn1c(CO)nc2c1c(=O)[nH]c(=O)n2Cc1ccccc1 | 17.4% | 16.4 µM [rising, partial curve, poor fit] | 
Cc1cc(C(=O)Nc2sc3c(c2C#N)CCC(C)C3)no1 (stereo unspecified) |  |  | 0.651 µM [rising, single point]
Nc1nn(-c2ccccc2)nc1C(=O)OCc1ccccc1 | 0.955% | 29.1 µM [rising, single point] | 
COc1ccc(CNC(=O)c2c(C)nc3ccccn23)cc1 | -35.6% | 14.6 µM [falling, partial curve] | 9.2 µM [falling, partial curve, poor fit]
O=C(NCc1ccco1)c1cccc2c1C(=O)N(C1CCCCC1)C2 | 13.3% | 29.1 µM [rising, single point] | 
COc1ccc(N2C(=O)CC(Nc3ccc(C)cc3)C2=O)cc1 (stereo unspecified) | -37.9% |  | 29.1 µM [falling, single point]
O=C(NCC1CCCO1)c1ccc(COc2ccccc2Br)cc1 (stereo unspecified) | 16.4% | 2.06 µM [rising, partial curve] | 
CCOc1ccc(N2C(=O)CC(Sc3ccccc3C(=O)O)C2=O)c([N+](=O)[O-])c1 (stereo unspecified) | -9.94% | 0.13 µM [falling, full curve, poor fit] | 
CC(C)On1c(SC(C)C)nc2ccccc2c1=O | -25.1% |  | 
O=[N+]([O-])c1ccc2c(c1)C(O)n1ncnc1S2 (stereo unspecified) | -0.704% |  | 
O=C(NC1CCCCCC1)c1ccc2c(=O)n3c(nc2c1)CCCCC3 | 12.6% |  | 
CC(C)CCNC(=O)c1ccc(Cl)c(NC(=O)c2ccccc2F)c1 |  | 0.461 µM [rising, single point] | 
COCc1nnc(NC(=O)c2sc3ccccc3c2Cl)s1 | -13.8% | 29.1 µM [falling, single point] | 
CCOC(=O)CN1C(=O)S/C(=C/c2ccco2)C1=O | -8.2% | 1.16 µM [falling, full curve, poor fit] | 
NC(=O)CSc1nc2ccccc2n1Cc1ccccc1F | -1.48% |  | 
O=C(Nc1ccc2c(c1)OCO2)Nc1ccc(Br)cn1 | -6.15% |  | 
CCN(CC)S(=O)(=O)c1ccc(C(=O)NNC(=O)C2CCN(S(=O)(=O)c3ccc(Cl)cc3)CC2)cc1 | 32.6% |  | 16.4 µM [rising, single point]

Quoted from the listing.
CCCCCC(=O)OCCc1c(C)nc2nc[nH]n2c1=O – cell number change: 4.66%
CCc1cc(-c2[nH]ncc2-c2ccc([N+](=O)[O-])cc2)c(O)cc1OC – AC50 [2]: 29.1 µM [falling, single point]
NC(=O)CSc1nc2ccccc2n1Cc1ccccc1F – cell number change: -1.48%
COc1ccc(C2CC(=O)c3cc(OC)c(OC)cc32)cc1OC (stereo unspecified) – AC50 [1]: 0.731 µM [rising, single point]
